In the supplement of paper PMC8960247:

System: 621-102 (TSC2-deficient)
Assay: relative viability vs DMSO (fraction); higher = less cytotoxic
Conditions: serum: 0.1% FBS, 72 h

Row | SMILES | relative viability (0.0128 nM) | relative viability (0.064 nM) | relative viability (0.32 nM) | relative viability (1.6 nM) | relative viability (8 nM) | relative viability (40 nM) | relative viability (200 nM) | relative viability (1000 nM) | relative viability (5000 nM)
1 | CC1(C)CCC(c2ccc(Cl)cc2)=C(CN2CCN(c3ccc(C(=O)NS(=O)(=O)c4ccc(N[C@H](CCN5CCOCC5)CSc5ccccc5)c(S(=O)(=O)C(F)(F)F)c4)cc3)CC2)C1 [ABT-263 (Navitoclax)] | 0.805 | 0.792 | 0.704 | 0.761 | 0.718 | 0.571 | 0.468 | 0.315 | 0.0114
2 | CN(C)CC[C@H](CSc1ccccc1)Nc1ccc(S(=O)(=O)NC(=O)c2ccc(N3CCN(Cc4ccccc4-c4ccc(Cl)cc4)CC3)cc2)cc1[N+](=O)[O-] [ABT-737] | 0.57 | 0.367 | 0.717 | 0.691 | 0.722 | 0.68 | 0.428 | 0.0153 | 0.0075
3 | COc1ccc(S(=O)(=O)Nc2cccnc2Nc2ccc(O)cc2)cc1 [ABT-751] | 0.798 | 0.823 | 0.821 | 0.783 | 0.713 | 0.7 | 0.746 | 0.0395 | 0.0511
4 | Cc1ccc(F)c(NC(=O)Nc2ccc(-c3cccc4[nH]nc(N)c34)cc2)c1 [ABT-869] | 0.717 | 0.691 | 0.581 | 0.646 | 0.606 | 0.63 | 0.502 | 0.495 | 0.0266
5 | C[C@]1(c2nc3c(C(N)=O)cccc3[nH]2)CCCN1 [ABT-888] | 0.769 | 0.758 | 0.742 | 0.651 | 0.633 | 0.681 | 0.409 | 0.486 | 0.521
6 | CC(C)(C)c1cc(NC(=O)Nc2ccc(-c3cn4c(n3)sc3cc(OCCN5CCOCC5)ccc34)cc2)no1 [AC-220] | 0.935 | 0.909 | 1.04 | 1.15 | 1.01 | 1.08 | 0.802 | 0.831 | 0.895
7 | CCN1CCN(Cc2ccc(-c3cc4c(N[C@H](C)c5ccccc5)ncnc4[nH]3)cc2)CC1 [AEE788] | 0.257 | 1.07 | 1.34 | 1.47 | 1.13 | 1.15 | 1.01 | 0.0269 | 0.019
8 | N#C/C(=C\c1ccc(O)c(O)c1)C(=O)NCc1ccccc1 [AG-490] | 0.715 | 0.809 | 0.774 | 0.801 | 0.774 | 0.722 | 0.675 | 0.666 | 0.565
9 | Cc1csc(-c2nnc(Nc3ccc(Oc4ncccc4-c4ccnc(N)n4)cc3)c3ccccc23)c1 [AMG 900] | 0.775 | 0.665 | 0.533 | 0.0233 | 0.0178 | 0.0196 | 0.0325 | 0.0435 | 0.028
10 | CC(C)[C@H](C(=O)Nc1ccc(C(=O)NO)cc1)c1ccccc1 [AR-42] | 1.07 | 1.02 | 0.993 | 0.199 | 0.9 | 0.216 | 0.275 | 0.105 | 0.0646
11 | O=C(NC1CCNCC1)c1n[nH]cc1NC(=O)c1c(Cl)cccc1Cl [AT7519] | 0.771 | 0.868 | 1.01 | 0.778 | 0.731 | 0.697 | 0.686 | 0.032 | 0.0226
12 | Clc1ccc(C2(c3ccc(-c4cn[nH]c4)cc3)CCNCC2)cc1 [AT7867] | 0.852 | 0.854 | 0.875 | 0.862 | 0.996 | 0.859 | 0.619 | 0.268 | 0.0543
13 | O=C(Nc1c[nH]nc1-c1nc2ccc(CN3CCOCC3)cc2[nH]1)NC1CC1 [AT9283] | 0.876 | 0.868 | 0.795 | 0.818 | 0.739 | 0.208 | 0.0283 | 0.00844 | 0.0121
14 | COc1cc2nccc(Oc3ccc(NC(=O)Nc4cc(C)on4)c(Cl)c3)c2cc1OC [AV-951] | 0.722 | 0.779 | 0.737 | 0.677 | 0.772 | 0.754 | 0.667 | 0.408 | 0.00725
15 | Cc1cc(Nc2nc(N[C@@H](C)c3ccc(F)cc3)c(C#N)cc2F)n[nH]1 [AZ 960] | 0.659 | 0.526 | 0.589 | 0.208 | 0.121 | 0.382 | 0.462 | 0.0455 | 0.0177
16 | CN1CCN(CCOc2cc(OC3CCOCC3)c3c(Nc4c(Cl)ccc5c4OCO5)ncnc3c2)CC1 [AZD0530] | 0.956 | 0.949 | 0.925 | 0.846 | 0.704 | 0.69 | 0.832 | 0.733 | 0.464
17 | Cc1cc(Nc2nc(N[C@@H](C)c3ncc(F)cn3)ncc2Cl)[nH]n1 [AZD1480] | 0.897 | 0.841 | 0.766 | 0.825 | 0.73 | 0.694 | 0.746 | 0.789 | 0.665

Single values of this set are uncertain.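 Viability of TSC2-lost, immortalized human renal angiomyolipoma cells bearing an empty vector was measured by luminescent ATP assay, normalized to each plate's vehicle-treated wells, in low-serum medium, where TSC2-rescued cells do not grow.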
